Measurements from article PMC4891058.
No constants are given. Whether binding was seen depends on the method and setting. In cells and extracts the contact can be indirect. Some binding calls cover weakened binding; strength is not graded here.

Sequences of proteins named here, by UniProt entry; tags and fusion partners are left off. A change or cut given only in a name is not applied to a line headed by its entry.
UniProt P08151: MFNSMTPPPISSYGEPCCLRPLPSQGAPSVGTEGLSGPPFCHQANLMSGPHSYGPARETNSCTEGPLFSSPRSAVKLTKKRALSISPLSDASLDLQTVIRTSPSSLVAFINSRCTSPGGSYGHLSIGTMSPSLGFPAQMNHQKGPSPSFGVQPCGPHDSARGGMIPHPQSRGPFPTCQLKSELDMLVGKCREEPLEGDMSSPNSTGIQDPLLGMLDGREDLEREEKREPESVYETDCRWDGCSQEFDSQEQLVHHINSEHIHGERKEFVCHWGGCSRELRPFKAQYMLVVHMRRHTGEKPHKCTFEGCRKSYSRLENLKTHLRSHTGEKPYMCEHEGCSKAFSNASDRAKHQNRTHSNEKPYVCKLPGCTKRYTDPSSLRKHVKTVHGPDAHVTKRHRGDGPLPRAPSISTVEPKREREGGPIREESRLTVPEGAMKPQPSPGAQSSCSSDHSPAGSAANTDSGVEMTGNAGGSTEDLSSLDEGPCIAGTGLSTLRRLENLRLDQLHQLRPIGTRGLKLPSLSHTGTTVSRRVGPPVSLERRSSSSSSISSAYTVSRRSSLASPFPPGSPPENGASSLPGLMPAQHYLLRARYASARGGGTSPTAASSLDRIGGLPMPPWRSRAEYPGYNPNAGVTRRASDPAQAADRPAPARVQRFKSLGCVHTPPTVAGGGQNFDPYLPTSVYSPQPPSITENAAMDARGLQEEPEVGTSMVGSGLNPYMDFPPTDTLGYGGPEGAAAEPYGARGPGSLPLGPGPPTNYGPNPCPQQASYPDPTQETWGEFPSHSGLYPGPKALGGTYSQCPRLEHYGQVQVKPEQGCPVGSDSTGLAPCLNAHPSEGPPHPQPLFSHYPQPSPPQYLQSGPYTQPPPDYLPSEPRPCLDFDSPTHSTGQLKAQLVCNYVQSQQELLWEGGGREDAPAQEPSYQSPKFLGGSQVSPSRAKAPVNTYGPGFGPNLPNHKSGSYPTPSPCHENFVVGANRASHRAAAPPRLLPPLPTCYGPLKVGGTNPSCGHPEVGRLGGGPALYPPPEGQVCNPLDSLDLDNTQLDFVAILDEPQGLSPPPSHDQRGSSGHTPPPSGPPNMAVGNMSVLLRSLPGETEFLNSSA
UniProt P62258: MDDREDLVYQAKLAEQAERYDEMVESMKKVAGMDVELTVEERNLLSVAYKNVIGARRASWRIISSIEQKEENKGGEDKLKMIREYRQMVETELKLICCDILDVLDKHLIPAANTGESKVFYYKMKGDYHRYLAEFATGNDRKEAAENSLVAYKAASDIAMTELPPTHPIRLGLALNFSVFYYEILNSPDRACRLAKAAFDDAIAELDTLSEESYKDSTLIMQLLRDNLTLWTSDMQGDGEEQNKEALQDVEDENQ

Tests used:
[1] = target: Flag-Gli1 S408E mutant (human) (UniProt P08151); experiment: co-IP; DAOY cells transfected with Flag-Gli1 (WT or mutant) and HA-14-3-3 epsilon; treated with or without A-769662 for the indicated times; Flag-Gli1 immunoprecipitated, western blot of eluted proteins with Flag and HA antibodies
Flag-Gli1 WT (human) = Flag-Gli1 WT (human) (UniProt P08151); experiment: as above

Question: Which binding [1] does the source give for “HA-14-3-3 epsilon (from UniProt P62258 1-255)” here?
Answer: binds

Question: And the binding (Flag-Gli1 WT (human))?
Answer: binds
